Source: article PMC12137317

Chains of the proteins cited; added tags and fusions are not shown.
UniProt P52926: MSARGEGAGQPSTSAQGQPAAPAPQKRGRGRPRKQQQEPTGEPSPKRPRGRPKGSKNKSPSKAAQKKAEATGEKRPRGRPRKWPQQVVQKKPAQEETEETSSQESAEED
UniProt Q92794: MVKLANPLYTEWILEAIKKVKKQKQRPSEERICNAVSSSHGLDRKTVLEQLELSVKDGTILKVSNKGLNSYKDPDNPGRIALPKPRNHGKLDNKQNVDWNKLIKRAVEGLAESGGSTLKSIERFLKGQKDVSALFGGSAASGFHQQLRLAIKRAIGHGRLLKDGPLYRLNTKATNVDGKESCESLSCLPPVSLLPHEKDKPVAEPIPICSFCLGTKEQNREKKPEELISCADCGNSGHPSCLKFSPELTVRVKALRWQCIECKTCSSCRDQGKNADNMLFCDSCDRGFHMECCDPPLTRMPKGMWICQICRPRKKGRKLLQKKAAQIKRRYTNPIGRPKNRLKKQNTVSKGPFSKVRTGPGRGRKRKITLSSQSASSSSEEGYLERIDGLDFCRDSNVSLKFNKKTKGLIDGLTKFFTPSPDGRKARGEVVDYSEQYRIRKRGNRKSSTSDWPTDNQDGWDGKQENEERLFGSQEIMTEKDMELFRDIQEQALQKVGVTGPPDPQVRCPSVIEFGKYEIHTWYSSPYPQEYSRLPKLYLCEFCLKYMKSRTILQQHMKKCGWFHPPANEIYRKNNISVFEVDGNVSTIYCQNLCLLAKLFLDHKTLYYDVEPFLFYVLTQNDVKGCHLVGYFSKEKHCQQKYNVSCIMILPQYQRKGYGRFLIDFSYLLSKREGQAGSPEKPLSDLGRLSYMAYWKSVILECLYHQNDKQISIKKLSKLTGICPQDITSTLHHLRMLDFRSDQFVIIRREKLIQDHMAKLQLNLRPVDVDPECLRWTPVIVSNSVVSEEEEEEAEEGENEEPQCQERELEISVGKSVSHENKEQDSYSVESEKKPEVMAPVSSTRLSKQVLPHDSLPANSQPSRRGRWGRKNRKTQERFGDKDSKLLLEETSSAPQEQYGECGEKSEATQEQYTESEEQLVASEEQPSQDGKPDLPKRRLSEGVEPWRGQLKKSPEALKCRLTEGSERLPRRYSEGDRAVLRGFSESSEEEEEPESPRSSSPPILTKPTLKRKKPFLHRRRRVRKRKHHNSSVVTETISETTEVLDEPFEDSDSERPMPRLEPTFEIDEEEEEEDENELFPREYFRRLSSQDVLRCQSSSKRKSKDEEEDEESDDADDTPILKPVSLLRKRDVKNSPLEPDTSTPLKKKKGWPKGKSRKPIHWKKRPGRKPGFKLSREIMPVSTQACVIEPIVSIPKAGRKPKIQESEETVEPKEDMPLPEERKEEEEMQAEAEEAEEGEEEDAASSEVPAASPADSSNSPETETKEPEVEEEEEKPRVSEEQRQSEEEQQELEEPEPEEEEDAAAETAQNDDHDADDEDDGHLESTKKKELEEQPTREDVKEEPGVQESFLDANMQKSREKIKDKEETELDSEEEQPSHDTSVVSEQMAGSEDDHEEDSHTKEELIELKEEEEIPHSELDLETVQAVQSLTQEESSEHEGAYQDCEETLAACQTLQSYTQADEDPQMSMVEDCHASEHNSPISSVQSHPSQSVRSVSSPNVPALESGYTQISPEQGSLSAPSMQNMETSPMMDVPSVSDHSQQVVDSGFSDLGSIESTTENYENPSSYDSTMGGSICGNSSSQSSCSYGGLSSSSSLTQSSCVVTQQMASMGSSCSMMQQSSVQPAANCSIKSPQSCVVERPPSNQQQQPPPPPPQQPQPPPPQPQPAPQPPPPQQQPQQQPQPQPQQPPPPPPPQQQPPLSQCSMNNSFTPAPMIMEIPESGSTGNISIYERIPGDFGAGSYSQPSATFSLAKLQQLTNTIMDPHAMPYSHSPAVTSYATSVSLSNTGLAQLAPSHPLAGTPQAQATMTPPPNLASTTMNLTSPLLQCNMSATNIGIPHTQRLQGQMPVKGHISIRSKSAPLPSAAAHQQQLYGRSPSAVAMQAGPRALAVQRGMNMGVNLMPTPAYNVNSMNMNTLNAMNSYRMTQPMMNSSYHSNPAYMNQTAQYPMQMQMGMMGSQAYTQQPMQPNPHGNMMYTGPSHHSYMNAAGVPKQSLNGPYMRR

Target: High mobility group AT-hook 2 (HMGA2), full-length, overexpressed from pLVX-IRES-HMGA2 (human) (UniProt P52926)
Test: affinity purification with mass spectrometry; IP from MDA-MB-231 cells, vector versus HMGA2 cells; NP-40 lysis buffer; protein A/G magnetic beads; SDS-PAGE with Coomassie staining, then mass spectrometry

Substance: Lysine acetyltransferase 6A (KAT6A) in TNBC cells (from UniProt Q92794 1-2004)
- binding: binds

These are yes or no findings as the source states them, for the method shown. In cells and extracts the contact can be indirect. These calls come from enrichment with a bait or labelling near it, and not all partners need be listed.
